ChEMBL document CHEMBL1938276, “Design and synthesis of 2-heterocyclyl-3-arylthio-1H-indoles as potent tubulin polymerization and cell growth inhibitors with improved metabolic stability” (J Med Chem, 2011)

Test system: MCF7
Test: Growth inhibition of human MCF7 cells after 96 hrs
Assay type: functional, cell-based
Conditions: MCF7, 96 h

COc1cc2c(c(OC)c1OC)-c1ccc(OC)c(=O)cc1[C@@H](NC(C)=O)CC2 [COLCHICINE]
IC50: 5 nM
